Measurements taken from PubChem BioAssay AID1487 (National Center for Advancing Translational Sciences (NCATS), 2009).
“And” between values parts separate entries of the source, which are not always exact repeats. Equal entries are not always repeated. Some of the results follow. The main result of the screen is listed elsewhere. These columns were measured beside it and carry no call. Most of these compounds were active or inconclusive in the main read-out, so they are no random draw. Words in brackets tell the shape of the fitted curve; partial curves, single points and poor fits give uncertain potencies.

Test: qHTS Assay for Modulators of Lamin A Splicing
Settings: HeLa LMNA splicing GFP/RFP minigene ratio, 48 h
Summary of the method: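 S3 HeLa stable clones carrying a lamin A-EGFP splicing minigene plus DsRed2 were seeded at 600 cells/well in Opti-MEM with 2% FBS, pin-dosed and incubated 48 h at 37°C. Acumen cytometry (488 nm) gave the GFP/RFP total-intensity ratio.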

[1] = measured here: GFP splicing reporter channel
[2] = measured here: RFP viability control channel

SMILES: CCCCCCCCCCCCCCCCCC[N+](C)(C)CCC[Si](OC)(OC)OC
- AC50 [1]: 1.12 µM [falling, partial curve, poor fit]
- AC50 [2]: 35.5 µM [falling, single point]

SMILES: Clc1ccc(COC(Cn2ccnc2)c2ccc(Cl)cc2Cl)cc1 (centres undefined)
- AC50 [1]: 11.2 µM [rising, partial curve, poor fit] and 17.8 µM [falling, partial curve]
- AC50 [2]: 12.6 µM [rising, partial curve] and 15.8 µM [falling, partial curve]

SMILES: COc1ccc2c(c1OC)C(=O)OC2C1c2cc3c(cc2CCN1C)OCO3 (centres undefined)
- AC50 [2]: 0.000891 µM [falling, full curve, poor fit]

SMILES: CN(C)C=C1C(=O)N(C2CCCCC2)C(=O)N(C2CCCCC2)C1=O
- AC50 [1]: 25.1 µM [falling, single point]
- AC50 [2]: 31.6 µM [falling, single point]

SMILES: CC1OC(OC2C(O)CC(OC3C(O)CC(OC4CCC5(C)C(CCC6C5CCC5(C)C(C7=CC(=O)OC7)CCC65O)C4)OC3C)OC2C)CC(O)C1O (centres undefined)
- AC50 [1]: 1 µM [falling, full curve, poor fit]
- AC50 [2]: 0.708 µM [rising, full curve]

SMILES: c1ccc2c(CN3CCCCCCC3)c[nH]c2c1
- AC50 [1]: 35.5 µM [falling, single point]
- AC50 [2]: 3.16 µM [falling, partial curve]

SMILES: CCCN1CCC[C@@H]2Cc3n[nH]cc3C[C@H]21
- AC50 [1]: 6.31 µM [falling, partial curve, poor fit]

SMILES: CCOP(=O)(OCC)c1nc(-c2ccc(C)cc2)oc1NCc1ccccc1
- AC50 [1]: 15.8 µM [rising, single point]
- AC50 [2]: 31.6 µM [rising, single point]

SMILES: Cc1ccc(CC(=O)N2CCN(Cc3ccccc3)CC2)cc1
- AC50 [2]: 0.0708 µM [rising, full curve, poor fit]

SMILES: O=C(O)c1cc(O)c(O)c(O)c1
- AC50 [2]: 0.282 µM [rising, full curve, poor fit]

SMILES: CCC(C#N)(CC)P(=S)(c1ccccc1)c1ccccc1
- AC50 [2]: 5.01 µM [rising, partial curve]

SMILES: O=C(c1cc(-c2ccc(Cl)cc2)n(-c2ccc(Cl)cc2Cl)n1)N1CCOCC1
- AC50 [2]: 11.2 µM [falling, single point]

SMILES: Cc1ccc(-c2cn3c(=S)[nH]nc3s2)cc1
- AC50 [1]: 4.47 µM [rising, single point]
- AC50 [2]: 31.6 µM [falling, single point]

SMILES: COC(=O)c1ccc(NC(=O)CSc2nc3ccc(N4C(=O)C5C6C=CC(C6)C5C4=O)cc3s2)cc1 (centres undefined)
- AC50 [2]: 35.5 µM [rising, single point]

SMILES: CCCCC(CC)COC(=O)c1ccccc1O (centres undefined)
- AC50 [1]: 10 µM [rising, partial curve, poor fit]
- AC50 [2]: 10 µM [rising, partial curve, poor fit]

SMILES: C[C@H]1CCCC(=O)CCCCCc2cc(O)cc(O)c2C(=O)O1
- AC50 [1]: 10 µM [falling, partial curve, poor fit]
- AC50 [2]: 28.2 µM [rising, single point]

SMILES: CCN1CCN(C(=O)Cc2c(C)n(C(=O)c3ccc(Cl)cc3)c3ccc(OC)cc23)CC1
- AC50 [2]: 0.316 µM [rising, partial curve]

SMILES: CN1CCN(C(=O)Cc2nc3ccccc3[nH]2)CC1
- AC50 [1]: 31.6 µM [rising, single point]
- AC50 [2]: 35.5 µM [rising, single point]

SMILES: Cc1nc(-c2ccc(-c3ccc(C(=O)N4CCc5cc6c(cc54)C4(CCN(C)CC4)CO6)cc3)c(C)c2)no1
- AC50 [1]: 11.2 µM [falling, partial curve]
- AC50 [2]: 17.8 µM [falling, partial curve]

SMILES: CC(=NCc1ccc(F)cc1)c1c(O)n(C)c(=O)n(C)c1=O
- AC50 [1]: 12.6 µM [rising, single point]
- AC50 [2]: 12.6 µM [rising, partial curve]

SMILES: Cc1ccc(C(C)C)c(OCC(=O)N2CCN(Cc3nc4cc([N+](=O)[O-])ccc4n3C)CC2)c1
- AC50 [1]: 8.91 µM [rising, partial curve]
- AC50 [2]: 17.8 µM [rising, partial curve]

SMILES: Cc1c(C(=O)N2CCC3(CC2)OCCO3)sc2ncnc(N(C)c3ccccc3)c12
- AC50 [1]: 8.91 µM [rising, partial curve, poor fit]
- AC50 [2]: 10 µM [rising, partial curve, poor fit]

SMILES: c1ccc2[nH]c(CCNC3CCCCC3)nc2c1
- AC50 [2]: 35.5 µM [rising, single point]

SMILES: COc1ccc(C2=NCC(=O)N(CC(=O)NCc3ccco3)c3sc4c(c32)CCCC4)cc1
- AC50 [2]: 14.1 µM [rising, single point]

SMILES: CC(C)c1cccc(C(C)C)c1O
- AC50 [1]: 1 µM [falling, full curve]
- AC50 [2]: 1.12 µM [falling, full curve, poor fit]

SMILES: CCC(C)NC(=O)c1c(N)n(CCCOC)c2nc3ccccc3nc12 (centres undefined)
- AC50 [1]: 1.12 µM [rising, partial curve, poor fit]
- AC50 [2]: 0.02 µM [rising, full curve, poor fit]

SMILES: CCOc1ccc(C(NC(=O)c2cc(OC)c(OC)c(OC)c2)c2cc(Cl)c3cccnc3c2O)cc1 (centres undefined)
- AC50 [1]: 5.01 µM [rising, partial curve]
- AC50 [2]: 5.62 µM [rising, partial curve]

SMILES: Cc1ccc(O)c([C@H](CCN(C(C)C)C(C)C)c2ccccc2)c1
- AC50 [1]: 28.2 µM [falling, single point]
- AC50 [2]: 35.5 µM [falling, single point]

SMILES: Cc1nn(Cc2ccccc2)c(C)c1C(=O)OCC(=O)Nc1ccccc1SCC#N
- AC50 [1]: 12.6 µM [rising, single point]

SMILES: O=P(OC1CCCCC1)(OC1CCCCC1)C(O)c1c(Cl)cccc1Cl (centres undefined)
- AC50 [1]: 12.6 µM [rising, single point]
- AC50 [2]: 15.8 µM [rising, single point]

SMILES: C=COCCn1c(C)c(C(=O)OCC)c2cc(O)ccc21
- AC50 [2]: 35.5 µM [rising, single point]

SMILES: Cc1occc1C(=O)Nc1nnc(C(F)(F)F)s1
- AC50 [2]: 11.2 µM [rising, partial curve]

SMILES: O=C(O)CC[N+](=O)[O-]
- AC50 [1]: 5.62 µM [falling, partial curve, poor fit]
- AC50 [2]: 6.31 µM [falling, partial curve, poor fit]

SMILES: CSc1ncc(CN2CCCC(C(=O)c3cccc(Cl)c3)C2)cn1 (centres undefined)
- AC50 [2]: 10 µM [falling, partial curve, poor fit]

SMILES: COc1ccc(Cn2c(=O)oc3ccc(C)cc32)cc1OC
- AC50 [2]: 8.91 µM [rising, partial curve]

SMILES: CC(=O)Nc1ccccc1C(=O)OCc1ccc(F)cc1
- AC50 [1]: 0.2 µM [falling, full curve]
- AC50 [2]: 7.08 µM [falling, full curve, poor fit]

SMILES: COc1ccc(-c2cc(=NCCCCCC(=O)O)c3cc(C)ccc3o2)cc1
- AC50 [2]: 1.41 µM [falling, partial curve, poor fit]

SMILES: CCC[C@@](C)(COC(N)=O)COC(=O)NC(C)C
- AC50 [1]: 10 µM [falling, single point]

SMILES: Clc1ccccc1-c1cncnc1NCCc1cnc[nH]1
- AC50 [1]: 10 µM [falling, partial curve]
- AC50 [2]: 7.08 µM [falling, partial curve]

SMILES: CC(C)COC(=O)n1c(=O)oc2cc(S(=O)(=O)N3CCCCC3)ccc21
- AC50 [2]: 35.5 µM [rising, single point]

SMILES: CN1CC=C(c2c[nH]c3ccccc23)CC1
- AC50 [2]: 12.6 µM [rising, partial curve]

SMILES: N#CCn1c(CCl)nc2ccccc2c1=O
- AC50 [1]: 0.158 µM [falling, full curve, poor fit]
- AC50 [2]: 1.41 µM [falling, partial curve]

SMILES: O=[N+]([O-])c1cccc(CN2CCN(Cc3ccc(Cl)cc3)CC2)c1
- AC50 [2]: 12.6 µM [rising, partial curve]

SMILES: CCCCCCCCCC(=O)O[C@H]1CC[C@H]2[C@@H]3CCC4=CC(=O)CC[C@@H]4[C@H]3CC[C@]12C
- AC50 [1]: 14.1 µM [rising, partial curve]
- AC50 [2]: 12.6 µM [rising, partial curve, poor fit]

SMILES: O=C(c1ccc(CNS(=O)(=O)c2ccc(Br)cc2)cc1)N1CCC2(CC1)OCCO2
- AC50 [1]: 14.1 µM [rising, partial curve]
- AC50 [2]: 15.8 µM [rising, partial curve]

SMILES: CC(CCC(=O)O)C1CCC2C3CC[C@@H]4CCCC[C@@]4(C)C3CC[C@@]12C (some centres undefined)
- AC50 [1]: 17.8 µM [falling, single point]
- AC50 [2]: 20 µM [falling, single point]

SMILES: Cc1ccc(/C=C2/C(=O)NC(=O)N(CCc3ccc(F)cc3)C2=O)o1
- AC50 [1]: 0.0398 µM [falling, single point]
- AC50 [2]: 0.0282 µM [falling, partial curve]

SMILES: Nc1ccc2c(c1)Cc1cc([N+](=O)[O-])ccc1-2
- AC50 [2]: 1.58 µM [rising, partial curve, poor fit]

SMILES: O=C1C2CC=CCC2C(=O)N1SC(Cl)(Cl)Cl (centres undefined)
- AC50 [1]: 0.447 µM [falling, full curve, poor fit]
- AC50 [2]: 0.794 µM [falling, full curve, poor fit]

SMILES: CCCCCn1c(NC(=O)c2ccco2)c(C(=O)OCC)c2nc3ccccc3nc21
- AC50 [1]: 11.2 µM [rising, single point]

SMILES: Cc1ccc(Cn2cccc(C(=O)Nc3ccc(C)c(Cl)c3)c2=O)cc1
- AC50 [2]: 22.4 µM [falling, single point]
